From US5721207A, “Method for treatment of pain” (Innapharma, Inc., priority 1995, dated 1998)

Test system: rat
Conditions: intrathecal

## CN1CC[C@]23c4c5ccc(O)c4O[C@H]2[C@@H](O)C=C[C@H]3[C@H]1C5.O=S(=O)(O)O [Morphine, Morphine sulfate]
  duration of analgesia, elcatonin compared with morphine: appeared to be shorter than for elcatonin
post-injection
  time by which reduced potency is apparent: ≤ 3 h
